In experiment [1] the test system is hAMSC donor 1. The experiment in a line: Hoechst total cell count ratio vs vehicle control; higher = more cells (less toxicity).
In experiment [2] the test system is hAMSC donor 2. The experiment is described as above.
Experiment [3] relates to hAMSC donor 1. The experiment in a line: transgenic luciferase activity (RLU/mg protein) fold change vs vehicle control (ratio); higher = more transgene expression.
The test system of experiment [4] is hAMSC donor 2. The description is as above.
The test system of experiment [5] is hAMSC donor 1. The experiment in a line: transfection efficiency (EGFP+ cells / Hoechst count) fold change vs vehicle control (ratio); hAMSC are human adipose-derived mesenchymal stem cells given an EGFP-luciferase plasmid by lipofection; higher = enhanced transfection.
The subject of experiment [6] is hAMSC donor 2. The description is as above.
[7] abbreviates: priming compound concentration 0.2 µM.
Where [8] appears, read: priming compound concentration 1.7 µM.
Where [9] appears, read: priming compound concentration 13 µM.

Structures can show the parent of a compound that is named as a salt. ± gives the standard deviation of the averaged measurements. The list shows a part of the results. The data scatter; read single values as rough.

As to `Nc1nc(N)c2nc(-c3ccccc3)c(N)nc2n1` [Triamterene], the “Hoechst total cell count ratio” value in the experiment with hAMSC donor 1 [1] (setting [7]) turned out to be 1.08 ± 0.088; with hAMSC donor 1 [1] (setting [8]), 1.26 ± 0.071; with hAMSC donor 1 [1] (setting [9]), 1.1 ± 0.15; in the experiment on hAMSC donor 2 [2] (setting [7]), 1.2 ± 0.15; in the experiment on hAMSC donor 2 [2] (setting [8]) it was 1.04 ± 0.19; with hAMSC donor 2 [2] (setting [9]), 1.25 ± 0.16. Besides, the transgenic luciferase activity turned out to be 0.823 ± 0.034 with hAMSC donor 1 [3] (setting [7]); 1.56 ± 1.3 in the experiment with hAMSC donor 1 [3] (setting [8]); 0.908 ± 0.28 in the experiment on hAMSC donor 2 [4] (setting [7]); 0.995 ± 0.043 with hAMSC donor 2 [4] (setting [8]); 0.844 ± 0.26 in the experiment on hAMSC donor 2 [4] (setting [9]). Further, the transfection efficiency with hAMSC donor 1 [5] (setting [7]) turned out to be 1.48 ± 0.38; in the experiment with hAMSC donor 1 [5] (setting [8]), 1.15 ± 0.24; in the experiment on hAMSC donor 1 [5] (setting [9]), 0.927 ± 0.43; with hAMSC donor 2 [6] (setting [7]), 0.836 ± 0.028; with hAMSC donor 2 [6] (setting [8]), 1.17 ± 0.17; in the experiment on hAMSC donor 2 [6] (setting [9]) it was 1.05 ± 0.24.

`CN1CCC(=C2c3ccccc3C=Cc3ccccc32)CC1` [Cyproheptadine hydrochloride]: the “Hoechst total cell count ratio” value in the experiment on hAMSC donor 1 [1] (setting [7]) turned out to be 1.33 ± 0.074; in the experiment with hAMSC donor 1 [1] (setting [8]) it was 0.52 ± 0.069; in the experiment with hAMSC donor 1 [1] (setting [9]), 1.25 ± 0.16; in the experiment on hAMSC donor 2 [2] (setting [7]), 0.73 ± 0.27; in the experiment with hAMSC donor 2 [2] (setting [8]), 0.926 ± 0.12; in the experiment with hAMSC donor 2 [2] (setting [9]), 1.37 ± 0.11. In addition, the transgenic luciferase activity amounted to 1.94 ± 3.1 in the experiment with hAMSC donor 1 [3] (setting [8]), 0.597 ± 0.091 with hAMSC donor 1 [3] (setting [9]), 0.649 ± 0.063 with hAMSC donor 2 [4] (setting [8]) and 0.315 ± 0.085 in the experiment on hAMSC donor 2 [4] (setting [9]). Moreover, the transfection efficiency came to 1.13 ± 0.22 with hAMSC donor 1 [5] (setting [7]); 1.76 ± 0.15 with hAMSC donor 1 [5] (setting [8]); 1.19 ± 0.4 in the experiment with hAMSC donor 1 [5] (setting [9]); 1.42 ± 0.16 in the experiment with hAMSC donor 2 [6] (setting [7]); 1.23 ± 0.15 in the experiment with hAMSC donor 2 [6] (setting [8]); 1.03 ± 0.064 with hAMSC donor 2 [6] (setting [9]).

As for `CO[C@@]1(NC(=O)Cc2cccs2)C(=O)N2C(C(=O)O)=C(COC(N)=O)CS[C@@H]21` [Cefoxitin sodium], the “Hoechst total cell count ratio” value with hAMSC donor 1 [1] (setting [7]) was 0.988 ± 0.035; in the experiment with hAMSC donor 1 [1] (setting [8]), 1.26 ± 0.14; in the experiment with hAMSC donor 1 [1] (setting [9]) it was 0.932 ± 0.088; in the experiment with hAMSC donor 2 [2] (setting [7]), 0.869 ± 0.1; with hAMSC donor 2 [2] (setting [8]), 1.78 ± 0.28; in the experiment on hAMSC donor 2 [2] (setting [9]) it was 1.17 ± 0.38. Moreover, the transgenic luciferase activity in the experiment on hAMSC donor 1 [3] (setting [7]) stood at 0.566 ± 0.17; in the experiment with hAMSC donor 1 [3] (setting [8]) it was 0.924 ± 0.51; in the experiment on hAMSC donor 2 [4] (setting [7]), 0.533 ± 0.087; in the experiment on hAMSC donor 2 [4] (setting [8]), 0.887 ± 0.18; in the experiment with hAMSC donor 2 [4] (setting [9]) it was 0.651 ± 0.35. Moreover, the transfection efficiency turned out to be 1.74 ± 0.7 in the experiment with hAMSC donor 1 [5] (setting [8]); 0.935 ± 0.14 in the experiment on hAMSC donor 1 [5] (setting [9]); 1.52 ± 0.43 with hAMSC donor 2 [6] (setting [7]); 0.878 ± 0.062 in the experiment with hAMSC donor 2 [6] (setting [8]); 1.2 ± 0.38 in the experiment on hAMSC donor 2 [6] (setting [9]).

Consider `CC1=C(/C=C/C(C)=C/C=C/C(C)=C\C(=O)O)C(C)(C)CCC1` [Isotretinoin], for which the “Hoechst total cell count ratio” value was 1.12 ± 0.07 in the experiment with hAMSC donor 1 [1] (setting [7]); 1.06 ± 0.17 with hAMSC donor 1 [1] (setting [8]); 1.14 ± 0.17 in the experiment with hAMSC donor 1 [1] (setting [9]); 1.32 ± 0.097 with hAMSC donor 2 [2] (setting [7]); 1.26 ± 0.12 in the experiment with hAMSC donor 2 [2] (setting [8]); 0.753 ± 0.16 in the experiment with hAMSC donor 2 [2] (setting [9]). Besides, the transgenic luciferase activity was determined as 0.802 ± 0.14 with hAMSC donor 1 [3] (setting [7]); 0.709 ± 0.48 in the experiment on hAMSC donor 1 [3] (setting [8]); 0.596 ± 0.1 in the experiment with hAMSC donor 2 [4] (setting [7]); 0.922 ± 0.077 in the experiment on hAMSC donor 2 [4] (setting [8]); 0.572 ± 0.065 with hAMSC donor 2 [4] (setting [9]). For the same compound, the transfection efficiency in the experiment on hAMSC donor 1 [5] (setting [7]) is 1.18 ± 0.44; in the experiment with hAMSC donor 1 [5] (setting [8]), 0.884 ± 0.21; with hAMSC donor 1 [5] (setting [9]), 0.698 ± 0.067; in the experiment on hAMSC donor 2 [6] (setting [7]), 1.32 ± 0.35; in the experiment on hAMSC donor 2 [6] (setting [8]), 0.9743 ± 0.0051; in the experiment on hAMSC donor 2 [6] (setting [9]), 0.977 ± 0.071.

`CC1(C)O[C@@H]2C[C@H]3[C@@H]4CCC5=CC(=O)C=C[C@]5(C)[C@@]4(F)[C@@H](O)C[C@]3(C)[C@]2(C(=O)CO)O1` [Triamcinolone acetonide]: the “Hoechst total cell count ratio” value in the experiment on hAMSC donor 1 [1] (setting [7]) was determined as 1.56 ± 0.17; in the experiment with hAMSC donor 1 [1] (setting [8]), 1.25 ± 0.092; in the experiment on hAMSC donor 1 [1] (setting [9]), 1.56 ± 0.077; in the experiment with hAMSC donor 2 [2] (setting [7]), 1.03 ± 0.098; in the experiment on hAMSC donor 2 [2] (setting [8]) it was 0.853 ± 0.058; in the experiment on hAMSC donor 2 [2] (setting [9]), 1.11 ± 0.24. Besides, the transgenic luciferase activity was found to be 11.7 ± 2.2 in the experiment on hAMSC donor 1 [3] (setting [8]); 7.49 ± 1.3 with hAMSC donor 1 [3] (setting [9]); 5.49 ± 1.3 in the experiment with hAMSC donor 2 [4] (setting [7]); 5.46 ± 0.33 in the experiment with hAMSC donor 2 [4] (setting [8]); 4.77 ± 0.84 in the experiment on hAMSC donor 2 [4] (setting [9]). Besides, the transfection efficiency is 1.68 ± 0.45 in the experiment with hAMSC donor 1 [5] (setting [7]); 3.06 ± 0.65 with hAMSC donor 1 [5] (setting [8]); 1.91 ± 0.37 in the experiment on hAMSC donor 1 [5] (setting [9]); 1.67 ± 0.21 in the experiment with hAMSC donor 2 [6] (setting [7]); 2.42 ± 0.27 with hAMSC donor 2 [6] (setting [8]); 1.87 ± 0.12 in the experiment with hAMSC donor 2 [6] (setting [9]).

Turning to `COC(=O)Nc1nc2cc(C(=O)c3ccc(F)cc3)ccc2[nH]1` [Flubendazole], the “Hoechst total cell count ratio” value in the experiment on hAMSC donor 1 [1] (setting [7]) is 1.1 ± 0.16; in the experiment on hAMSC donor 1 [1] (setting [8]), 1.16 ± 0.16; with hAMSC donor 1 [1] (setting [9]), 1.02 ± 0.38; in the experiment on hAMSC donor 2 [2] (setting [7]) it was 1.02 ± 0.093; with hAMSC donor 2 [2] (setting [8]) it was 0.762 ± 0.017; with hAMSC donor 2 [2] (setting [9]), 0.508 ± 0.084. In addition, the transgenic luciferase activity came to 1.36 ± 0.73 in the experiment with hAMSC donor 1 [3] (setting [7]), 0.543 ± 0.32 in the experiment on hAMSC donor 1 [3] (setting [8]), 0.516 ± 0.056 with hAMSC donor 2 [4] (setting [8]) and 0.185 ± 0.043 with hAMSC donor 2 [4] (setting [9]). Moreover, the transfection efficiency in the experiment with hAMSC donor 1 [5] (setting [7]) turned out to be 1.05 ± 0.15; in the experiment on hAMSC donor 1 [5] (setting [8]), 1.14 ± 0.15; in the experiment with hAMSC donor 1 [5] (setting [9]) it was 0.829 ± 0.15; in the experiment with hAMSC donor 2 [6] (setting [7]) it was 1.34 ± 0.17; in the experiment with hAMSC donor 2 [6] (setting [8]) it was 1.42 ± 0.12; in the experiment with hAMSC donor 2 [6] (setting [9]), 0.967 ± 0.14.

These data come from the supplement of paper PMC7238544.
